In publication PMC10174586:
Results are given in words; binding and its absence hold for the method and conditions named. In cells and extracts the contact can be indirect. Some results given as binding are weak or reduced against the parent protein; the word gives no strength.

By UniProt entry, the sequences of proteins in these tests, tags left out.
UniProt Q9H9Y6: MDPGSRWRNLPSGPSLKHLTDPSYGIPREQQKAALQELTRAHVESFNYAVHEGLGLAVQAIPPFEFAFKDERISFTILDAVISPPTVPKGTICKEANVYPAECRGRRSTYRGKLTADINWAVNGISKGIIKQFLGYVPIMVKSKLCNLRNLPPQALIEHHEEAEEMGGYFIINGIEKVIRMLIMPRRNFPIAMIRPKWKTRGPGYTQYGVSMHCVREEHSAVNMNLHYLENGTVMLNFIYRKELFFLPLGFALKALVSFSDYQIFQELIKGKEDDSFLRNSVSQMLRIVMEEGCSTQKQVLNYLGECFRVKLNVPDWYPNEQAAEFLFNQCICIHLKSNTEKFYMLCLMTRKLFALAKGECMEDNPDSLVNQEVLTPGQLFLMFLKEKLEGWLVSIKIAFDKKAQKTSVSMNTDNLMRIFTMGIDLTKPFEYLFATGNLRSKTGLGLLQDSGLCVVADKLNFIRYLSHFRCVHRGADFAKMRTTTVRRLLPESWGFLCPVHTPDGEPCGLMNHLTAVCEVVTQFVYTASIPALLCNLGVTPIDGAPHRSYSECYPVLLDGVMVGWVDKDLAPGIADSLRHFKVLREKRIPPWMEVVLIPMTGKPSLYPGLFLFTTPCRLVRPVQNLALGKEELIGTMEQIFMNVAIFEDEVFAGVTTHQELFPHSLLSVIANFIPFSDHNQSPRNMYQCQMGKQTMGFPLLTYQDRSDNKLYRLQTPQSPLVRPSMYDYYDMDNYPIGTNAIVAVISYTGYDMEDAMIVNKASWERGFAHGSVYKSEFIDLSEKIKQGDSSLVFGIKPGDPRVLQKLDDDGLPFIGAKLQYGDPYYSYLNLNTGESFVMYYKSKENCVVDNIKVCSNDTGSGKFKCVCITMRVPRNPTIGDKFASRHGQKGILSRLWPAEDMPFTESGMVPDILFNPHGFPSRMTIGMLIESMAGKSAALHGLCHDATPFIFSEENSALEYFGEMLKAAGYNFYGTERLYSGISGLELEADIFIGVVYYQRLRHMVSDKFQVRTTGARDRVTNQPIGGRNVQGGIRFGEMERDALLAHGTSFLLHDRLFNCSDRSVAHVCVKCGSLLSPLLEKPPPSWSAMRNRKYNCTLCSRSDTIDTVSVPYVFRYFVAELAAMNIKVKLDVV
UniProt O95602: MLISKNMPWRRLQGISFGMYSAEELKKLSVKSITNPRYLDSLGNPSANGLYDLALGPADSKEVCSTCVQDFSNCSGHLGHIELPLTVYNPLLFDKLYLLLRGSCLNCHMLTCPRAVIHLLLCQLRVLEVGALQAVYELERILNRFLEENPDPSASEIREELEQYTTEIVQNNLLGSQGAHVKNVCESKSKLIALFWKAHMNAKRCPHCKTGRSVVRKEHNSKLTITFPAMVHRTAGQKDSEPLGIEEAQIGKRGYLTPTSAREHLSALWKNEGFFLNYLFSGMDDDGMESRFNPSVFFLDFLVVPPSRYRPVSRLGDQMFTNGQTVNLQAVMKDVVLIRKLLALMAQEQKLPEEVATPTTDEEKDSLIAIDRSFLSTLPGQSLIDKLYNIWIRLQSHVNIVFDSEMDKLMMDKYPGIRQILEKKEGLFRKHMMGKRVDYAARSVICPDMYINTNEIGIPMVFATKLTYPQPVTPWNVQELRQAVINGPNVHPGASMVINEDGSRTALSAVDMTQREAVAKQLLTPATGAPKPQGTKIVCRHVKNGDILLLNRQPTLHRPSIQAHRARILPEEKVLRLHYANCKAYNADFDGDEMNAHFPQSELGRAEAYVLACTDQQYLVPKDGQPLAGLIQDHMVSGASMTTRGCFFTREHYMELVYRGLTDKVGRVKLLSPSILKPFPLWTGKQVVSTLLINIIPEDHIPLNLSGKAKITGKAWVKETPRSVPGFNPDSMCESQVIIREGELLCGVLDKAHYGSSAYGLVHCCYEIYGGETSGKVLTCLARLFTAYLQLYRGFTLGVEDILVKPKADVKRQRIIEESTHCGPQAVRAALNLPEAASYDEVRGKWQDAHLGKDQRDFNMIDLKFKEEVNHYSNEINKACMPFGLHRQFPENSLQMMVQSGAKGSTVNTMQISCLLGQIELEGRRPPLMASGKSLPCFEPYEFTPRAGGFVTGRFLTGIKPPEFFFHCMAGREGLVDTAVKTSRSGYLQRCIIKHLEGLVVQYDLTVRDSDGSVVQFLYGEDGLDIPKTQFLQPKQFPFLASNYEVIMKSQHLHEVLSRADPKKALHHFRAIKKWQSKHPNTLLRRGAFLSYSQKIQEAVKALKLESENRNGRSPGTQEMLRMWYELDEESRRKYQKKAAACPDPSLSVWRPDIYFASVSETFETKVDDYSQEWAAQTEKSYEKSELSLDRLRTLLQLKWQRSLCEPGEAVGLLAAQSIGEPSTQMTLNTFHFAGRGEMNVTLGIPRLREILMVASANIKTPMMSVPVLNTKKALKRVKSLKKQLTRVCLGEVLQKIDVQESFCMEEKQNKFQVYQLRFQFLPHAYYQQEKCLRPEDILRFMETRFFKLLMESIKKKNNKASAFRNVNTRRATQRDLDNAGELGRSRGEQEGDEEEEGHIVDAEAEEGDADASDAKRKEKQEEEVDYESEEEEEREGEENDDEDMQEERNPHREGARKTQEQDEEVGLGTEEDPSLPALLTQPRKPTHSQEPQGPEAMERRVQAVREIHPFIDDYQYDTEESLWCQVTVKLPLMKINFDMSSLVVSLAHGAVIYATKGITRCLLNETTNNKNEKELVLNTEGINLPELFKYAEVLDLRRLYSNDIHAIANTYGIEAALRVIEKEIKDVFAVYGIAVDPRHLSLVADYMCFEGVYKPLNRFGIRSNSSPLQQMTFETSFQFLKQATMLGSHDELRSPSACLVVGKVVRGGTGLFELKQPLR

Columns and labels:
[1] = molecular target: RNA polymerase I subunit RPA135 (human (endogenous in A375)) (UniProt Q9H9Y6); assay: co-IP; endogenous proteins from A375 lysates (1 mg, RIPA buffer), precipitated with RPA194 (C-1) or RPA135 (H-15) antibodies or control IgG on Protein G Dynabeads, 5 washes with RIPA, reciprocal immunoblotting; cells transfected with Ctrl siRNA or RPA12 siRNA and treated with BMH-21 (1 uM) for 3 hours
[2] = molecular target: RNA polymerase I catalytic subunit RPA194 (human (endogenous in A375)) (UniProt O95602); assay: as above

binding [1]	binding [2]	Substance
binds		RNA polymerase I catalytic subunit RPA194 (from UniProt O95602 1-1720)
	binds	RNA polymerase I subunit RPA135 (from UniProt Q9H9Y6 1-1135)
